Screen size: about 1,000 compounds; fewer than 10 were called active.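 How the source made its calls: active means fitted half-maximal concentration no higher than twice the top valid tested dose, with signal falling; inconclusive means flat curve with 30 to 70% inhibition, or poor fit; inactive means the rest.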 This is one part of the list. Potency and affinity values are given separately.
These compounds were tested against Golgi-associated PDZ and coiled-coil motif-containing protein (Homo sapiens) (UniProt Q9HD26) (assay: CAL PDZ domain peptide-binding inhibitors, dose response, biochemical, fluorescence polarization, untagged CAL PDZ, cherry-pick, set 2 (AID 602254;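 further: 0% = DMSO neutral control and -100% = unlabeled peptide PRC23 positive control; more negative means stronger blocking of peptide binding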)). Details: Purified CAL PDZ, TMR peptide fluorescence polarization; at 60 µM (top of the series).

Activity change, negative = inhibition, inactive:
C=CC(=O)NCc1ccc(-c2csnn2)cc1 -0.734%
CCCN1CCN(S(=O)(=O)c2ccc3c(c2)CCC(=O)N3)CC1 -0.697%
CN(C)C1(CNC(=S)Nc2ccccc2C(F)(F)F)CCCCC1 -0.017%
O=C(CC(=O)c1ccccc1)CC(O)(C=Cc1ccccc1)c1ccccc1 (stereo unspecified) 3.75%
COc1ccc(N2CCN(C(=O)CN3C(=O)NC4(CCCCCC4)C3=O)CC2)cc1 0.759%
CCOC(=O)c1ccc(S(=O)(=O)N2CCN(S(=O)(=O)CC)CC2)cc1 -0.142%
CCCCN1CC(COCc2ccccc2)Oc2cccc(F)c2S1(=O)=O (stereo unspecified) 0.998%
COc1ccccc1/C=N/NC(=O)c1ccc2c(c1)OCO2 2.16%
CN(C)CCC(C(=O)c1ccccc1)c1ccccn1 (stereo unspecified) -1.68%
CC1CCN(Cc2nnnn2CCCC(=O)NCCc2cnn(C)c2)CC1 -1.37%
O=C(NC(N1CCOCC1)C(Cl)(Cl)Cl)c1ccc(F)cc1 (stereo unspecified) -0.486%
COc1ccc(NC(=O)c2cccc(S(=O)(=O)N3CCCC3)c2)cc1OC 8.7%
CCOC(=O)C1=C(C)C/C(=N\NC(=O)c2ccccc2O)CC1 3.3%
COc1ccc(CN2CCC(n3nccc3NC(=O)C3CC3)CC2)c(OC)c1OC -0.491%
COc1cc(NC(=S)N2CCN(S(=O)(=O)c3ccc(F)cc3)CC2)cc(OC)c1 -2.82%
CC(C)c1ccc(N(CC(=O)N2CCOCC2)S(C)(=O)=O)cc1 -0.358%
Cc1cc(C(=O)NNC(=O)c2cccc(C(F)(F)F)c2)no1 -0.975%
Cc1ccc(CNc2ncnc3[nH]ncc23)cc1 1.25%
O=C(Nc1cccc(-n2cnnn2)c1)c1ccc(OC(F)(F)F)cc1 2.59%
Cc1ccc(/C(=N\S(=O)(=O)c2ccc(Br)cc2)Nc2ccccc2C)cc1 -0.968%
Cc1cc(C)c(C#N)c(N2CCC(C(N)=O)CC2)n1 -1.3%
COC(=O)c1sccc1NC(=S)N1CCN(C)CC1 -0.795%
Cc1onc(-c2c(F)cccc2Cl)c1C(=O)NCc1ccccn1 1.76%
O=C(O)CCN(Cc1ccccc1)S(=O)(=O)c1ccccc1Cl -0.547%
COc1cccc(C(=O)C2CCCN(C(=O)c3ccccn3)C2)c1 (stereo unspecified) -4.12%
CC(=O)NC(Cc1cccc(C)c1)C(=O)NC1CCN(S(=O)(=O)c2ccccc2)CC1 (stereo unspecified) 8.23%
O=C(CCn1cnnn1)Nc1ccc(Cl)cc1Cl -1.9%
Cc1ccc(O)c(-c2cc(-c3cccc(Br)c3)n[nH]2)c1 0.711%
COc1cc(OC)cc(C(=O)NCC(=O)N2CCCCCCC2)c1 -2.43%
COc1cccc(C2(O)CCN(C(=O)C(C)C)CC2)c1 2.79%
CC(C)CCC(CCN1CCCC1)c1ccc2c(c1)OCO2 (stereo unspecified) 0.896%
O=C1NC2(CCCCCC2)C(=O)N1Cc1ccccc1Br -1.33%
Cc1cccc(NC(=O)CCNC(=O)c2ccc(Br)cc2)c1 -2.95%
Cc1ccc(C(=O)OC(C)CN2CCOCC2)cc1 (stereo unspecified) -3.25%
Cc1ccc(C(=O)N2CCC(N3CCC(C(=O)N4CCOCC4)CC3)CC2)cc1C -2.57%
CC(=O)c1c(C)[nH]c(C(=O)OCC(=O)NCCC(C)C)c1C -1.17%
COc1cc(C(=O)N2CCN(S(=O)(=O)c3cccs3)CC2)cc(OC)c1C 1.46%
COc1ccc(C(=O)NCC(=O)OCC(=O)Nc2sccc2C#N)cc1OC 0.376%
CCOCCCNC(=O)CCCOc1ccccc1 -2.16%
COC(=O)Cc1ccc(NC(=S)Nc2cccc(C)n2)cc1 2.44%
Cc1cccc(NC(=S)N2CCN(C(=O)C3CCCO3)CC2)c1 (stereo unspecified) 0.092%
CN(C(=O)c1cc2ccccc2oc1=O)C1(C)CCS(=O)(=O)C1 (stereo unspecified) -0.159%
CCC(CC)C(=O)NCCc1ccc(OC)c(OC)c1 -1.17%
COc1ccc(C2(C)NC(=O)N(CC(=O)c3cc(C)n(C4CC4)c3C)C2=O)cc1OC (stereo unspecified) -2.89%
Cc1[nH]c2c(C(=O)N3CCCC(CCC(=O)NCc4ccccc4F)C3)cccc2c1C (stereo unspecified) -0.046%
CC(=O)OCC12COC3c4ccccc4OC(C)(CC1C)C3C2C (stereo unspecified) -2.09%
COc1ccc(-n2nc(C(=O)NCC(=O)N3CCC(C)CC3)c3ccccc3c2=O)cc1 -2.27%
O=C(c1cccc(C(F)(F)F)c1)C1CCCN(C(=O)CCn2cnnn2)C1 (stereo unspecified) 0.256%
COc1cccc(CN2CC(C(=O)NCCCc3ccc(C)cc3)CCC2=O)c1 (stereo unspecified) 0.591%
CCOC(=O)Cn1c(=O)oc2cc(S(=O)(=O)N(C)Cc3ccccc3)ccc21 -0.806%
C=CCCC1CN(CCCC)S(=O)(=O)c2c(F)cccc2O1 (stereo unspecified) -0.415%
CCCNC(=O)CCc1c(C)nc2nc(-c3cc(OC)cc(OC)c3)nn2c1C -1.96%
Cc1ccc(C(C)C)c(OC/C(O)=C(\C#N)c2nc3ccccc3[nH]2)c1 -1.42%
Cc1ccc(N2CCN(C(=S)Nc3ccccc3)CC2)cc1 -9.08%
Cc1cc(C)nc(CCNC(=O)CC2C(=O)NCCN2Cc2ccc(F)cc2Cl)n1 (stereo unspecified) -0.364%
Cc1ccccc1C(=O)NN1CCOCC1 1.4%
O=C(Nc1cccc(S(=O)(=O)N2CCOCC2)c1)c1ccccn1 -1.12%
CCc1ccc(CN(C)C(C)C(=O)NCc2ccccc2)cc1 (stereo unspecified) 0.258%
O=C(O)c1c(-c2ccc(Cl)cc2)cn2ccccc12 -0.658%
CCN1CCN(C(c2cc(OC)ccc2OC)c2nnnn2Cc2ccccc2)CC1 (stereo unspecified) -4.93%
O=C(CN(Cc1ccccc1)S(=O)(=O)c1ccc(F)cc1)NCCC1=CCCCC1 1.49%

Grouped by structure: the entries above with a CF3 group (4)
Activity change, negative = inhibition, inactive:
CN(C)C1(CNC(=S)Nc2ccccc2C(F)(F)F)CCCCC1 -0.017%
Cc1cc(C(=O)NNC(=O)c2cccc(C(F)(F)F)c2)no1 -0.975%
O=C(Nc1cccc(-n2cnnn2)c1)c1ccc(OC(F)(F)F)cc1 2.59%
O=C(c1cccc(C(F)(F)F)c1)C1CCCN(C(=O)CCn2cnnn2)C1 (stereo unspecified) 0.256%

From PubChem BioAssay AID602254 (Broad Institute, 2012)
